Laboratory results from PubChem BioAssay AID248 (DTP/NCI, 2004).
The list does not hold the whole screen: it is rich in T/C values a quarter to a half above the control, in often repeated tests (any T/C) and in doses without a T/C. Other doses and runs of a compound stand elsewhere. T/C is the treated group as % of the vehicle group. Some doses have a count of surviving animals in place of a T/C: the source files T/C as zero there, which appears to mark a toxic dose or a test without result, not a measured value. Some doses without a T/C left all or most animals alive at the check, yet need not have been tolerated: survival well below the control is almost never listed, so the zero probably covers shortened survival too. Survivors were counted at the toxicity check, usually on the fifth day, unless a day is given; later deaths do not show. Schedules are NCI's codes, read here as Q, the interval in days (D) or hours (H), X, the number of doses. Some schedule codes hold Z or #, which are not explained here. Some entries hold several experiments; the values are given in rising order. Where survival is the endpoint, this PubChem deposit counts one and a half times the control or more as active, and values a quarter to a half above the control carry no call in these data; other NCI protocols may use other cut-offs. Signs of the kind (2×) say how often a value occurs here. Some T/C values are followed by the survivors on the day toxicity was checked, most often the fifth; where none is given, no animal had died by that day.

Test system: L1210 leukemia ip in BDF1 mice, survival T/C
Assay: NCI In Vivo Anticancer Drug Screen. Data for tumor model L1210 Leukemia (intraperitoneal) in B6D2F1 (BDF1) mice
Details: higher T/C = longer survival

## Cc1c(O)ccc(=O)n1O
T/C endpoint: mean survival time, dose: 73.0 mg/kg/injection, schedule: Q01DX Z (ip), vehicle: methylcellulose (MC)
  T/C: 130 % of control
T/C endpoint: mean survival time, dose: 110.0 mg/kg/injection, schedule: Q01DX Z (ip), vehicle: methylcellulose (MC)
  T/C: 130 % of control
T/C endpoint: mean survival time, dose: 133.0 mg/kg/injection, schedule: Q01DX001 (ip), vehicle: carboxymethylcellulose (CMC)
  T/C: 126 % of control
T/C endpoint: mean survival time, dose: 143.0 mg/kg/injection, schedule: Q01DX009 (ip), vehicle: Klucel (hydroxypropylcellulose) (HPC)
  T/C: 131 % of control
T/C endpoint: mean survival time, dose: 143.0 mg/kg/injection, schedule: Q03HX024 (ip), vehicle: Klucel (hydroxypropylcellulose) (HPC)
  survivor count: 8 of 10
T/C endpoint: mean survival time, dose: 165.0 mg/kg/injection, schedule: Q01DX Z (ip), vehicle: methylcellulose (MC)
  T/C: 131 % of control
T/C endpoint: mean survival time, dose: 200.0 mg/kg/injection, schedule: Q01DX001 (ip), vehicle: carboxymethylcellulose (CMC)
  T/C: 125 % of control
T/C endpoint: mean survival time, dose: 215.0 mg/kg/injection, schedule: Q01DX009 (ip), vehicle: Klucel (hydroxypropylcellulose) (HPC)
  survivor count: 8 of 10
T/C endpoint: mean survival time, dose: 247.0 mg/kg/injection, schedule: Q01DX Z (ip), vehicle: carboxymethylcellulose (CMC)
  survivor count: 6 of 6
T/C endpoint: mean survival time, dose: 247.0 mg/kg/injection, schedule: Q01DX Z (ip), vehicle: saline
  survivor count: 6 of 6
T/C endpoint: mean survival time, dose: 322.0 mg/kg/injection, schedule: Q01DX009 (ip), vehicle: Klucel (hydroxypropylcellulose) (HPC)
  survivor count: 6 of 10
T/C endpoint: mean survival time, dose: 322.0 mg/kg/injection, schedule: Q03HX024 (ip), vehicle: Klucel (hydroxypropylcellulose) (HPC)
  survivor count: 0 of 10
T/C endpoint: mean survival time, dose: 370.0 mg/kg/injection, schedule: Q01DX Z (ip), vehicle: saline
  survivor count: 0 of 6
T/C endpoint: mean survival time, dose: 520.0 mg/kg/injection, schedule: Q01DX001 (ip), vehicle: Klucel (hydroxypropylcellulose) (HPC)
  survivor count: 6 of 10
T/C endpoint: mean survival time, dose: 520.0 mg/kg/injection, schedule: Q04DX003 (ip), vehicle: Klucel (hydroxypropylcellulose) (HPC)
  survivor count: 3 of 10 and 4 of 10
T/C endpoint: mean survival time, dose: 800.0 mg/kg/injection, schedule: Q01DX001 (ip), vehicle: carboxymethylcellulose (CMC)
  survivor count: 0 of 4
T/C endpoint: mean survival time, dose: 800.0 mg/kg/injection, schedule: Q01DX009 (ip), vehicle: Klucel (hydroxypropylcellulose) (HPC)
  survivor count: 1 of 8
T/C endpoint: mean survival time, dose: 960.0 mg/kg/injection, schedule: Q01DX001 (ip), vehicle: Klucel (hydroxypropylcellulose) (HPC)
  survivor count: 0 of 10
T/C endpoint: mean survival time, dose: 960.0 mg/kg/injection, schedule: Q04DX003 (ip), vehicle: Klucel (hydroxypropylcellulose) (HPC)
  survivor count: 0 of 10
T/C endpoint: mean survival time, dose: 1430.0 mg/kg/injection, schedule: Q01DX001 (ip), vehicle: Klucel (hydroxypropylcellulose) (HPC)
  survivor count: 0 of 10
T/C endpoint: mean survival time, dose: 1430.0 mg/kg/injection, schedule: Q04DX003 (ip), vehicle: Klucel (hydroxypropylcellulose) (HPC)
  survivor count: 0 of 10
T/C endpoint: mean survival time, dose: 2150.0 mg/kg/injection, schedule: Q01DX001 (ip), vehicle: Klucel (hydroxypropylcellulose) (HPC)
  survivor count: 0 of 10
T/C endpoint: mean survival time, dose: 2150.0 mg/kg/injection, schedule: Q04DX003 (ip), vehicle: Klucel (hydroxypropylcellulose) (HPC)
  survivor count: 0 of 10
T/C endpoint: mean survival time, dose: 3220.0 mg/kg/injection, schedule: Q01DX001 (ip), vehicle: Klucel (hydroxypropylcellulose) (HPC)
  survivor count: 0 of 10
T/C endpoint: mean survival time, dose: 3220.0 mg/kg/injection, schedule: Q04DX003 (ip), vehicle: Klucel (hydroxypropylcellulose) (HPC)
  survivor count: 0 of 10

## OC(CCCNc1ccccc1)CCCNc1ccccc1
T/C endpoint: mean survival time, dose: 300.0 mg/kg/injection, schedule: Q01DX001 (ip), vehicle: saline
  survivor count: 1 of 6

## CC(C)(C)C1COP(=O)(OCc2ccccc2)OC1 (stereo unspecified)
T/C endpoint: mean survival time, dose: 400.0 mg/kg/injection, schedule: Q04DX003 (ip), vehicle: other
  survivor count: 6 of 6

## COc1ccc(C(=O)/C(Br)=C/C(=O)O)cc1
T/C endpoint: mean survival time, dose: 75.0 mg/kg/injection, schedule: Q01DX009 (ip), vehicle: saline
  survivor count: 0 of 6
T/C endpoint: mean survival time, dose: 100.0 mg/kg/injection, schedule: Q01DX009 (ip), vehicle: saline
  survivor count: 0 of 6
T/C endpoint: mean survival time, dose: 100.0 mg/kg/injection, schedule: Q04DX003 (ip), vehicle: saline
  survivor count: 0 of 6
T/C endpoint: mean survival time, dose: 115.0 mg/kg/injection, schedule: Q01DX009 (ip), vehicle: saline
  survivor count: 0 of 6
T/C endpoint: mean survival time, dose: 170.0 mg/kg/injection, schedule: Q01DX009 (ip), vehicle: saline
  survivor count: 0 of 6
T/C endpoint: mean survival time, dose: 200.0 mg/kg/injection, schedule: Q04DX002 (ip), vehicle: saline
  survivor count: 0 of 3
T/C endpoint: mean survival time, dose: 200.0 mg/kg/injection, schedule: Q04DX003 (ip), vehicle: saline
  survivor count: 0 of 6
T/C endpoint: mean survival time, dose: 400.0 mg/kg/injection, schedule: Q04DX002 (ip), vehicle: saline
  survivor count: 0 of 3
T/C endpoint: mean survival time, dose: 400.0 mg/kg/injection, schedule: Q04DX003 (ip), vehicle: saline
  survivor count: 0 of 6
T/C endpoint: median survival time, dose: 6.3 mg/kg/injection, schedule: Q01DX015 (ip), vehicle: saline, evaluated on day 7
  T/C: 96 % of control (2×)
T/C endpoint: median survival time, dose: 6.3 mg/kg/injection, schedule: Q01DX015 (ip), vehicle: saline, evaluated on day 34
  T/C: 96 % of control
T/C endpoint: median survival time, dose: 6.3 mg/kg/injection, schedule: Q01DX015 (ip), vehicle: saline, evaluated on day 63
  T/C: 96 % of control [7 of 8 alive]
T/C endpoint: median survival time, dose: 6.3 mg/kg/injection, schedule: Q07DX003 (ip), vehicle: saline, evaluated on day 7
  T/C: 94 and 98 % of control
T/C endpoint: median survival time, dose: 6.3 mg/kg/injection, schedule: Q07DX003 (ip), vehicle: saline, evaluated on day 34
  T/C: 94 % of control [6 of 8 alive]
T/C endpoint: median survival time, dose: 6.3 mg/kg/injection, schedule: Q07DX003 (ip), vehicle: saline, evaluated on day 63
  T/C: 98 % of control
T/C endpoint: median survival time, dose: 12.5 mg/kg/injection, schedule: Q01DX015 (ip), vehicle: saline, evaluated on day 7
  T/C: 97 and 110 % of control
T/C endpoint: median survival time, dose: 12.5 mg/kg/injection, schedule: Q01DX015 (ip), vehicle: saline, evaluated on day 34
  T/C: 97 % of control
T/C endpoint: median survival time, dose: 12.5 mg/kg/injection, schedule: Q01DX015 (ip), vehicle: saline, evaluated on day 63
  T/C: 110 % of control
T/C endpoint: median survival time, dose: 12.5 mg/kg/injection, schedule: Q07DX003 (ip), vehicle: saline, evaluated on day 7
  T/C: 99 and 103 % of control
T/C endpoint: median survival time, dose: 12.5 mg/kg/injection, schedule: Q07DX003 (ip), vehicle: saline, evaluated on day 34
  T/C: 103 % of control
T/C endpoint: median survival time, dose: 12.5 mg/kg/injection, schedule: Q07DX003 (ip), vehicle: saline, evaluated on day 63
  T/C: 100 % of control
T/C endpoint: median survival time, dose: 25.0 mg/kg/injection, schedule: Q01DX015 (ip), vehicle: saline, evaluated on day 7
  T/C: 101 and 113 % of control
T/C endpoint: median survival time, dose: 25.0 mg/kg/injection, schedule: Q01DX015 (ip), vehicle: saline, evaluated on day 34
  T/C: 101 % of control [7 of 8 alive]
T/C endpoint: median survival time, dose: 25.0 mg/kg/injection, schedule: Q01DX015 (ip), vehicle: saline, evaluated on day 63
  T/C: 113 % of control
T/C endpoint: median survival time, dose: 25.0 mg/kg/injection, schedule: Q07DX003 (ip), vehicle: saline, evaluated on day 7
  T/C: 97 % of control (2×)
T/C endpoint: median survival time, dose: 25.0 mg/kg/injection, schedule: Q07DX003 (ip), vehicle: saline, evaluated on day 34
  T/C: 97 % of control
T/C endpoint: median survival time, dose: 25.0 mg/kg/injection, schedule: Q07DX003 (ip), vehicle: saline, evaluated on day 63
  T/C: 97 % of control [7 of 8 alive]
T/C endpoint: median survival time, dose: 50.0 mg/kg/injection, schedule: Q01DX015 (ip), vehicle: saline, evaluated on day 7
  T/C: 101 % of control (2×)
T/C endpoint: median survival time, dose: 50.0 mg/kg/injection, schedule: Q01DX015 (ip), vehicle: saline, evaluated on day 34
  T/C: 101 % of control [7 of 8 alive]
T/C endpoint: median survival time, dose: 50.0 mg/kg/injection, schedule: Q01DX015 (ip), vehicle: saline, evaluated on day 63
  T/C: 101 % of control
T/C endpoint: median survival time, dose: 50.0 mg/kg/injection, schedule: Q07DX003 (ip), vehicle: saline, evaluated on day 7
  T/C: 97 and 102 % of control
T/C endpoint: median survival time, dose: 50.0 mg/kg/injection, schedule: Q07DX003 (ip), vehicle: saline, evaluated on day 34
  T/C: 97 % of control
T/C endpoint: median survival time, dose: 50.0 mg/kg/injection, schedule: Q07DX003 (ip), vehicle: saline, evaluated on day 63
  T/C: 102 % of control [6 of 8 alive]
T/C endpoint: median survival time, dose: 100.0 mg/kg/injection, schedule: Q01DX015 (ip), vehicle: saline, evaluated on day 7
  T/C: 80 and 96 % of control
T/C endpoint: median survival time, dose: 100.0 mg/kg/injection, schedule: Q01DX015 (ip), vehicle: saline, evaluated on day 63
  T/C: 96 % of control [6 of 8 alive]
T/C endpoint: median survival time, dose: 100.0 mg/kg/injection, schedule: Q01DX015 (ip), vehicle: saline
  survivor count: 4 of 8
T/C endpoint: median survival time, dose: 100.0 mg/kg/injection, schedule: Q07DX003 (ip), vehicle: saline, evaluated on day 7
  T/C: 83 and 98 % of control
T/C endpoint: median survival time, dose: 100.0 mg/kg/injection, schedule: Q07DX003 (ip), vehicle: saline, evaluated on day 63
  T/C: 98 % of control [6 of 8 alive]
T/C endpoint: median survival time, dose: 100.0 mg/kg/injection, schedule: Q07DX003 (ip), vehicle: saline
  survivor count: 6 of 8
